Test results from PubChem BioAssay AID2685 (National Center for Advancing Translational Sciences (NCATS), 2010).
The other results are listed elsewhere or left out. The main result of the screen is listed elsewhere. These columns were measured beside it and carry no call. The list favours compounds with an active or inconclusive main result. Words in brackets tell the shape of the fitted curve; partial curves, single points and poor fits give uncertain potencies.

Assay: qHTS Assay for Lipid Storage Modulators in Drosophila S3 Cells;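 as to cell number change: cells counted by Cell Tracker Red CMTPX staining in the red channel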
Conditions: BODIPY lipid droplet fluorescence, 18-24 h; for cell number change: measured here: cell count max response, cells fed with added oleic acid
How it was run: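 Drosophila S3 cells loaded with oleic acid (400 uM, as added) and compounds at several concentrations; lipid droplets imaged by 488-nm laser-scanning cytometry, 500–530 nm intensity and object ratio to cell channel. Percent activity normalized to 20 uM Triacsin C.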

[1] = measured here: cell number channel AC50, cells fed with added oleic acid
[2] = measured here: lipid fluorescence (Fed channel) AC50, cells fed with added oleic acid

In the case of `O=C(CSc1nc(=O)n2ccccc2n1)N1CCN(c2ccccc2)CC1`, the AC50 [1] is reported as 1.84 µM [rising, partial curve, poor fit].
For `Cc1ccc(S(=O)(=O)Nc2cccc(C(=O)NCCN3CCOCC3)c2)cc1F`, the cell number change was -13.1% and the AC50 [2] was 1.84 µM [falling, partial curve].
In the case of `Cc1nc(-c2ccccn2)sc1C(=O)Nc1ccc(Cl)c(Cl)c1`, the AC50 [2] is reported as 6.51 µM [rising, single point].
With `CC(C)(C)C(=O)Cn1nnc(-c2ccc(C(F)(F)F)cc2)n1` the cell number change was 26.4%.
With `O=C(NCCc1nc2ccccc2[nH]1)c1ccc(Br)o1` the cell number change was 0.952% and the AC50 [2] was 29.1 µM [falling, single point].
For `C(#Cc1ccccc1)CN1CCN(c2ccccn2)CC1`, the cell number change was -0.75% and the AC50 [2] was 0.651 µM [falling, full curve, poor fit].
Work on `Cc1onc(-c2c(F)cccc2Cl)c1C(=O)Nc1ccc(S(=O)(=O)Nc2ncccn2)cc1` yielded a cell number change of 1.29%.
For `Cc1ccc(Nc2c(-c3ccccn3)nc3cccc(C)n23)cc1`, the cell number change was -74.9%, the AC50 [1] was 5.17 µM [falling, single point] and the AC50 [2] was 29.1 µM [falling, single point].
In the case of `CC(C(=O)NCC1(c2ccccc2)CCCC1)N1CCCC1` (configuration not stated), the cell number change is reported as -12.1% and the AC50 [2] is reported as 0.184 µM [rising, full curve, poor fit].
For `CCC1=C2CC[C@H]3C(=O)N(C)C(=O)[C@H]3[C@H]2[C@@]2(Cc3ccccc3)C(=NCCOC)OC(=O)N2C1=O`, the cell number change was 13.2% and the AC50 [2] was 1.84 µM [rising, full curve, poor fit].
In the case of `CCOC(=O)c1c(NC(=S)NC)sc2c1CCCC2`, the cell number change is reported as -36%, the AC50 [1] is reported as 29.1 µM [falling, single point] and the AC50 [2] is reported as 29.1 µM [falling, single point].
For `CCOC(=O)N1CCC(c2nc(C)sc2C(=O)O)CC1`, the cell number change was 21.1% and the AC50 [2] was 3.66 µM [rising, single point].
In the case of `CN(CCc1ccccn1)S(=O)(=O)c1ccccc1F`, the cell number change is reported as -0.349% and the AC50 [2] is reported as 6.51 µM [rising, single point].
`CCC1CCC2(CC1)NC(=O)N(CC(=O)Nc1cccc(S(=O)(=O)N(C)c3ccccc3)c1)C2=O` (configuration not stated) showed a cell number change of -9.02%.
With `Cc1cnn(C(=S)NCc2ccc(Cl)cc2)c1` the cell number change was -36.5%, the AC50 [1] was 13 µM [falling, partial curve] and the AC50 [2] was 16.4 µM [falling, partial curve].
With `NC(=S)N/N=C/c1c[nH]c2ccc(OCc3ccccc3)cc12` the cell number change was 3.02% and the AC50 [1] was 0.731 µM [falling, partial curve].
For `Cc1cc(=O)n2nc(N3CCCC3C(=O)NCc3ccccn3)sc2n1` (configuration not stated), the cell number change was 0.129%.
For `Cc1ccc2ccccc2[n+]1CCCS(=O)(=O)[O-]`, the cell number change was -12.9% and the AC50 [2] was 0.00461 µM [falling, full curve, poor fit].
In the case of `Cc1ccc(C(=O)NC2(C(F)(F)F)N=C3SCCN3C2=O)cc1` (configuration not stated), the cell number change is reported as -26.6% and the AC50 [2] is reported as 18.4 µM [falling, partial curve].
In the case of `N#Cc1ccc(-c2csc(NC(=O)/C=C/c3cccs3)n2)cc1`, the cell number change is reported as -25.7% and the AC50 [1] is reported as 0.731 µM [falling, full curve, poor fit].
In the case of `COc1cc2c(C#CCCCO)c(-c3ccc(C#N)cc3)oc(=O)c2cc1OC`, the cell number change is reported as 21.5% and the AC50 [2] is reported as 0.00461 µM [rising, full curve, poor fit].
With `CCN(CC)C(=O)c1sc(NC(=O)Cc2ccc(OC)cc2)c(C#N)c1C` the AC50 [1] was 2.31 µM [rising, partial curve].
In the case of `CC(=O)NC(CC(=O)Nc1cccc(S(=O)(=O)N2CCCCC2)c1)c1ccccc1` (configuration not stated), the AC50 [1] is reported as 6.51 µM [rising, single point].
In the case of `C=C(C)CN=c1scc(C)n1/N=C/c1ccco1`, the cell number change is reported as 31.1% and the AC50 [1] is reported as 32.6 µM [rising, single point].
With `COc1ccc(C)cc1NC(=O)CSCc1ccccc1C` the cell number change was -13.5% and the AC50 [2] was 6.51 µM [falling, partial curve].
With `O=C1C(=O)N(CNc2ccccn2)c2ccccc21` the cell number change was -3.71%, the AC50 [1] was 6.51 µM [falling, single point] and the AC50 [2] was 0.651 µM [falling, full curve, poor fit].
In the case of `CCCCn1c(O)c(/C=C/C=C/C=Nc2ccccc2)sc1=S`, the cell number change is reported as 6.72%, the AC50 [1] is reported as 0.0366 µM [falling, full curve, poor fit] and the AC50 [2] is reported as 0.00651 µM [falling, full curve, poor fit].
For `O=C(CN1CCCc2ccccc21)NCCc1ccc(F)cc1`, the cell number change was 6.46% and the AC50 [2] was 0.092 µM [falling, full curve, poor fit].
In the case of `CC(=O)Nc1ncc(Cc2cc(Cl)ccc2Cl)s1`, the cell number change is reported as 14% and the AC50 [2] is reported as 13 µM [rising, partial curve, poor fit].
For `COc1ccc(C(=O)NC(=S)Nc2ccc(N3CCN(C(C)=O)CC3)cc2)cc1[N+](=O)[O-]`, the cell number change was -36.7%, the AC50 [1] was 18.4 µM [falling, single point] and the AC50 [2] was 25.9 µM [falling, single point].
In the case of `COc1ccc([C@H]2CC(=O)C=C(c3cccc(C(F)(F)F)c3)C2)cc1`, the cell number change is reported as -20.4%, the AC50 [1] is reported as 1.3 µM [falling, single point] and the AC50 [2] is reported as 0.92 µM [falling, single point].
In the case of `N#CC1(NC(=O)COC(=O)c2nc(Cl)ccc2Cl)CCCCC1`, the cell number change is reported as 2.62% and the AC50 [2] is reported as 1.84 µM [falling, partial curve].
For `COc1ccc(N(C(=O)c2ccco2)C(C(=O)NC2CCCC2)c2ccco2)cc1OC` (configuration not stated), the cell number change was -1.9% and the AC50 [2] was 6.51 µM [falling, single point].
With `Cn1nnc2ccccc2c1=O` the cell number change was 16.6% and the AC50 [2] was 16.4 µM [rising, single point].
For `Nc1nc2c(s1)COc1ccccc1-2`, the cell number change was 27% and the AC50 [2] was 9.2 µM [rising, partial curve].
For `Cc1ccnc(NC(=O)C2CCN(S(=O)(=O)c3ccc4c(c3)CC(C)N4C(=O)C3CCC3)CC2)c1` (configuration not stated), the cell number change was 1.53% and the AC50 [2] was 6.51 µM [rising, single point].
For `Cc1ccc(Nc2nnc(SCC(=O)Nc3ncc(S(=O)(=O)c4ccc([N+](=O)[O-])cc4)s3)s2)cc1`, the cell number change was 54.8%, the AC50 [1] was 29.1 µM [rising, single point] and the AC50 [2] was 0.517 µM [rising, full curve, poor fit].
With `COC(=O)c1cc(C(=O)N2CCN(c3cccc(Cl)c3)CC2)cc([N+](=O)[O-])c1` the cell number change was 14.3% and the AC50 [2] was 20.6 µM [rising, single point].
With `O=S(=O)(Nc1ccc(-c2ccc3nncn3n2)cc1)c1cccc(F)c1` the cell number change was -37%, the AC50 [1] was 14.6 µM [falling, single point] and the AC50 [2] was 23.1 µM [falling, single point].
With `CC(C)CC(NS(=O)(=O)c1cc(C(=O)O)ccc1Cl)C(=O)O` (configuration not stated) the cell number change was -24% and the AC50 [1] was 3.26 µM [falling, full curve, poor fit].
For `COC(=O)Nc1nc(C)c(C(=O)c2ccccc2)s1`, the cell number change was 33.1% and the AC50 [2] was 6.51 µM [falling, partial curve, poor fit].
Molecule `COc1ccc(CNC(=S)Nc2ccc(F)c(Cl)c2)cc1OC` has a cell number change of 3.29%.
For `Fc1cccc(Cl)c1/C=N/Nc1ccccn1`, the cell number change was 52.6%, the AC50 [1] was 1.64 µM [rising, partial curve] and the AC50 [2] was 0.0731 µM [rising, full curve, poor fit].
For `OCCC1CN(CC2CC2)CCN1Cc1ccc(F)c(F)c1` (configuration not stated), the cell number change was 7.09% and the AC50 [2] was 6.51 µM [falling, single point].
For `COc1ccc(-c2nc(NC(=O)CSc3nnc4ccccn34)ns2)cc1`, the cell number change was 10.8% and the AC50 [2] was 0.00461 µM [falling, full curve, poor fit].
In the case of `CCC(C)NC(=O)c1cc2c(=O)n3cccc(C)c3nc2s1` (configuration not stated), the cell number change is reported as 34.2% and the AC50 [1] is reported as 9.2 µM [rising, partial curve, poor fit].
In the case of `CCN(CC(=O)NCc1ccc(Cl)cc1)C(=O)CSCC(=O)Nc1ccc(OC)cc1`, the AC50 [2] is reported as 29.1 µM [falling, single point].
In the case of `O=C(CN1CCN(c2ccccn2)CC1)NCCc1ccccc1`, the cell number change is reported as 49.1% and the AC50 [2] is reported as 29.1 µM [rising, partial curve, poor fit].
For `CCC(NC(=O)CSc1nnnn1C1CC1)c1ccc(Br)cc1` (configuration not stated), the cell number change was 1.87%, the AC50 [1] was 0.82 µM [rising, single point] and the AC50 [2] was 0.82 µM [rising, single point].
For `CC(C)(CNC(=O)c1ccc(Cl)c(S(=O)(=O)N2CCc3ccccc3C2)c1)N1CCOCC1`, the cell number change was 4.35%.
In the case of `CCOc1ccc(/C=C/C(=O)NCc2ccccc2)cc1`, the cell number change is reported as 85.9%, the AC50 [1] is reported as 29.1 µM [rising, single point] and the AC50 [2] is reported as 0.517 µM [rising, partial curve, poor fit].
In the case of `CCc1nc2ccccc2c(C(=O)OCC(=O)N(CC(C)C)c2c(N)n(Cc3ccccc3)c(=O)[nH]c2=O)c1C`, the cell number change is reported as 2.76% and the AC50 [2] is reported as 1.3 µM [rising, partial curve].
For `CCn1nc(C)c(/C=N\NC(=O)c2ccc3c(c2)OCO3)c1C`, the cell number change was 32.8%, the AC50 [1] was 0.0058 µM [rising, full curve, poor fit] and the AC50 [2] was 0.00461 µM [rising, full curve, poor fit].
With `O=C(NCc1ccccc1)c1ccc(-c2ccccc2C(F)(F)F)o1` the cell number change was 19% and the AC50 [2] was 5.17 µM [rising, partial curve].
For `CCOc1ncccc1C(=O)OCC(=O)NC1CC1`, the cell number change was -15.1% and the AC50 [2] was 23.1 µM [falling, partial curve].
With `O=[N+]([O-])c1ccc(Cl)c(S(=O)(=O)Nc2cccc(-c3ccc(N4CCCC4)nn3)c2)c1` the cell number change was 104% and the AC50 [1] was 29.1 µM [rising, single point].
`O=C(COC(=O)c1ccc(Br)o1)NCc1cccs1` showed a cell number change of -2.38%.
With `CCOC(=O)C1CCCN(CC(O)COc2cccc(C)c2)C1` (configuration not stated) the cell number change was -19.3% and the AC50 [2] was 0.82 µM [falling, full curve, poor fit].
